Data taken from paper PMC4737497.
These are yes or no findings as the source states them, for the method shown. Binding seen in cells or lysates may run through a third protein. Some results given as binding are weak or reduced against the parent protein; the word gives no strength.

Amino acid sequences for entries named in this document (tags omitted).
UniProt Q13619, whole entry: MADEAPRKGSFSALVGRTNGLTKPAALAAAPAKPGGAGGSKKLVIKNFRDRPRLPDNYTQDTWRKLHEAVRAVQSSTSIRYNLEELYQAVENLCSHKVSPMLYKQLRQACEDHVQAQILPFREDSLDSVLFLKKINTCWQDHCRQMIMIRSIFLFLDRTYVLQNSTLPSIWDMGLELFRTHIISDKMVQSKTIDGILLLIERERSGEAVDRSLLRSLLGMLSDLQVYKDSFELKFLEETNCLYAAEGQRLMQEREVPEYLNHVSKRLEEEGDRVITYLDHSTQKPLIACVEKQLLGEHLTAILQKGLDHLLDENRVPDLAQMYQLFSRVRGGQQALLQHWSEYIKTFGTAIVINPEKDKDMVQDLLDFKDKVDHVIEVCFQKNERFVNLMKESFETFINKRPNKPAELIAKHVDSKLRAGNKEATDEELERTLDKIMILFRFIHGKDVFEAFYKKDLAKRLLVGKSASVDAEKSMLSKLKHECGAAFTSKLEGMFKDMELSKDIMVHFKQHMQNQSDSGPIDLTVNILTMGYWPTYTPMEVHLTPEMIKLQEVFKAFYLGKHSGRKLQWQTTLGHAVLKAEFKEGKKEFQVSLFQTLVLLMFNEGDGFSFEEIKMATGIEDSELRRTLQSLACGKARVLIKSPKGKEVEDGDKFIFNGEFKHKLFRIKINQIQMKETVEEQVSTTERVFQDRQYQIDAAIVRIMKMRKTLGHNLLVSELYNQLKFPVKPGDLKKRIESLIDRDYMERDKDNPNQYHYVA
UniProt Q9UKB1, whole entry: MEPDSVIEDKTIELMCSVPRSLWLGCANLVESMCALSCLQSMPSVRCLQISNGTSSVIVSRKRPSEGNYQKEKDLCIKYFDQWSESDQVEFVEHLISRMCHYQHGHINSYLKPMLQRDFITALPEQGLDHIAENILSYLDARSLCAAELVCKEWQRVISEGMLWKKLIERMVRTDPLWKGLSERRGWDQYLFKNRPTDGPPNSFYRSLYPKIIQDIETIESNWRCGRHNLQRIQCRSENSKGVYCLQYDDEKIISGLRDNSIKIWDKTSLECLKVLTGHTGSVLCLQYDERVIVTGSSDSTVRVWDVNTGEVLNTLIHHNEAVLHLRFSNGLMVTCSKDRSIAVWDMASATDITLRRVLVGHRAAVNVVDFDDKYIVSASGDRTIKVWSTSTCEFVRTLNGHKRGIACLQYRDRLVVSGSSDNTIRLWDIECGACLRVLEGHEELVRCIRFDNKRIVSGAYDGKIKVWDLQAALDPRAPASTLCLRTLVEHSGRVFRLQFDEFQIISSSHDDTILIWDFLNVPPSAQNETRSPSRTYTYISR
UniProt Q9Y297, whole entry: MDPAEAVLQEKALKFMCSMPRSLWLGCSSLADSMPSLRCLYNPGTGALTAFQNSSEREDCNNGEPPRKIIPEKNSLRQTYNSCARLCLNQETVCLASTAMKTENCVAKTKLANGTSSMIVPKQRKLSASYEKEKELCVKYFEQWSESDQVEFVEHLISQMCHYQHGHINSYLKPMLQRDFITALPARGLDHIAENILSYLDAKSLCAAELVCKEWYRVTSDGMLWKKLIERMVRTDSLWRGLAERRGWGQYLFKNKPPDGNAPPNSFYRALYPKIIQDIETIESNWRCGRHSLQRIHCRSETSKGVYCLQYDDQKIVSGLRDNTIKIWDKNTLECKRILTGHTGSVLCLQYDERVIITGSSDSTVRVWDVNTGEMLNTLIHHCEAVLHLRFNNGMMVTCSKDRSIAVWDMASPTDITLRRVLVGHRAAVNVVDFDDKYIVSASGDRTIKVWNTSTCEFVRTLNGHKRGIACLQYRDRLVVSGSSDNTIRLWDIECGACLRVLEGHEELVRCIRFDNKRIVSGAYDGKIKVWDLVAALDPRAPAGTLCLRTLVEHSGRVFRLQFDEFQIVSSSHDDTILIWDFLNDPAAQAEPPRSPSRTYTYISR
UniProt Q13620, whole entry: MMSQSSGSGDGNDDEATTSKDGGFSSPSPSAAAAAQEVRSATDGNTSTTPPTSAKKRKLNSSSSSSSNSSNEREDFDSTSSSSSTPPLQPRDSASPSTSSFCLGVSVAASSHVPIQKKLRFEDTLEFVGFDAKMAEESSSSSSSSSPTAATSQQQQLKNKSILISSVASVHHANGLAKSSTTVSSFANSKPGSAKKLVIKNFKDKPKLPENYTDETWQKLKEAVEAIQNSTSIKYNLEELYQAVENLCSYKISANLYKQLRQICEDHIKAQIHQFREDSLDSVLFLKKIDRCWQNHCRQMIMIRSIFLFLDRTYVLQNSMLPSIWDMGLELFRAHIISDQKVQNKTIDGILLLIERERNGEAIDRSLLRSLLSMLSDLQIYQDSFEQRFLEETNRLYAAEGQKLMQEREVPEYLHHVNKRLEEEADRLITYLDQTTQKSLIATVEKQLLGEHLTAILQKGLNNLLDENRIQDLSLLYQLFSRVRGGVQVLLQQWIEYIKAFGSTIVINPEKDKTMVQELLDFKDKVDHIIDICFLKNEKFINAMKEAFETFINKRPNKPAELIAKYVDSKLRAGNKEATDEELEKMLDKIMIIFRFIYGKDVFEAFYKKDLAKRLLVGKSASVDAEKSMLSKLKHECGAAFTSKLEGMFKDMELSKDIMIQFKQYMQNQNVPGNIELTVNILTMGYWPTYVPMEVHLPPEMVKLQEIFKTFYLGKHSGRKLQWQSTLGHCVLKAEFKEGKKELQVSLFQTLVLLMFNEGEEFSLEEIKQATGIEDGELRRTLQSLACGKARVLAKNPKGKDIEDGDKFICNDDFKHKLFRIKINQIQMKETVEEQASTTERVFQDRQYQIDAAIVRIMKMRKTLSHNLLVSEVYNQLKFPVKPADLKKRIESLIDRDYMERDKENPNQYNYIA
UniProt Q8IWT3, whole entry: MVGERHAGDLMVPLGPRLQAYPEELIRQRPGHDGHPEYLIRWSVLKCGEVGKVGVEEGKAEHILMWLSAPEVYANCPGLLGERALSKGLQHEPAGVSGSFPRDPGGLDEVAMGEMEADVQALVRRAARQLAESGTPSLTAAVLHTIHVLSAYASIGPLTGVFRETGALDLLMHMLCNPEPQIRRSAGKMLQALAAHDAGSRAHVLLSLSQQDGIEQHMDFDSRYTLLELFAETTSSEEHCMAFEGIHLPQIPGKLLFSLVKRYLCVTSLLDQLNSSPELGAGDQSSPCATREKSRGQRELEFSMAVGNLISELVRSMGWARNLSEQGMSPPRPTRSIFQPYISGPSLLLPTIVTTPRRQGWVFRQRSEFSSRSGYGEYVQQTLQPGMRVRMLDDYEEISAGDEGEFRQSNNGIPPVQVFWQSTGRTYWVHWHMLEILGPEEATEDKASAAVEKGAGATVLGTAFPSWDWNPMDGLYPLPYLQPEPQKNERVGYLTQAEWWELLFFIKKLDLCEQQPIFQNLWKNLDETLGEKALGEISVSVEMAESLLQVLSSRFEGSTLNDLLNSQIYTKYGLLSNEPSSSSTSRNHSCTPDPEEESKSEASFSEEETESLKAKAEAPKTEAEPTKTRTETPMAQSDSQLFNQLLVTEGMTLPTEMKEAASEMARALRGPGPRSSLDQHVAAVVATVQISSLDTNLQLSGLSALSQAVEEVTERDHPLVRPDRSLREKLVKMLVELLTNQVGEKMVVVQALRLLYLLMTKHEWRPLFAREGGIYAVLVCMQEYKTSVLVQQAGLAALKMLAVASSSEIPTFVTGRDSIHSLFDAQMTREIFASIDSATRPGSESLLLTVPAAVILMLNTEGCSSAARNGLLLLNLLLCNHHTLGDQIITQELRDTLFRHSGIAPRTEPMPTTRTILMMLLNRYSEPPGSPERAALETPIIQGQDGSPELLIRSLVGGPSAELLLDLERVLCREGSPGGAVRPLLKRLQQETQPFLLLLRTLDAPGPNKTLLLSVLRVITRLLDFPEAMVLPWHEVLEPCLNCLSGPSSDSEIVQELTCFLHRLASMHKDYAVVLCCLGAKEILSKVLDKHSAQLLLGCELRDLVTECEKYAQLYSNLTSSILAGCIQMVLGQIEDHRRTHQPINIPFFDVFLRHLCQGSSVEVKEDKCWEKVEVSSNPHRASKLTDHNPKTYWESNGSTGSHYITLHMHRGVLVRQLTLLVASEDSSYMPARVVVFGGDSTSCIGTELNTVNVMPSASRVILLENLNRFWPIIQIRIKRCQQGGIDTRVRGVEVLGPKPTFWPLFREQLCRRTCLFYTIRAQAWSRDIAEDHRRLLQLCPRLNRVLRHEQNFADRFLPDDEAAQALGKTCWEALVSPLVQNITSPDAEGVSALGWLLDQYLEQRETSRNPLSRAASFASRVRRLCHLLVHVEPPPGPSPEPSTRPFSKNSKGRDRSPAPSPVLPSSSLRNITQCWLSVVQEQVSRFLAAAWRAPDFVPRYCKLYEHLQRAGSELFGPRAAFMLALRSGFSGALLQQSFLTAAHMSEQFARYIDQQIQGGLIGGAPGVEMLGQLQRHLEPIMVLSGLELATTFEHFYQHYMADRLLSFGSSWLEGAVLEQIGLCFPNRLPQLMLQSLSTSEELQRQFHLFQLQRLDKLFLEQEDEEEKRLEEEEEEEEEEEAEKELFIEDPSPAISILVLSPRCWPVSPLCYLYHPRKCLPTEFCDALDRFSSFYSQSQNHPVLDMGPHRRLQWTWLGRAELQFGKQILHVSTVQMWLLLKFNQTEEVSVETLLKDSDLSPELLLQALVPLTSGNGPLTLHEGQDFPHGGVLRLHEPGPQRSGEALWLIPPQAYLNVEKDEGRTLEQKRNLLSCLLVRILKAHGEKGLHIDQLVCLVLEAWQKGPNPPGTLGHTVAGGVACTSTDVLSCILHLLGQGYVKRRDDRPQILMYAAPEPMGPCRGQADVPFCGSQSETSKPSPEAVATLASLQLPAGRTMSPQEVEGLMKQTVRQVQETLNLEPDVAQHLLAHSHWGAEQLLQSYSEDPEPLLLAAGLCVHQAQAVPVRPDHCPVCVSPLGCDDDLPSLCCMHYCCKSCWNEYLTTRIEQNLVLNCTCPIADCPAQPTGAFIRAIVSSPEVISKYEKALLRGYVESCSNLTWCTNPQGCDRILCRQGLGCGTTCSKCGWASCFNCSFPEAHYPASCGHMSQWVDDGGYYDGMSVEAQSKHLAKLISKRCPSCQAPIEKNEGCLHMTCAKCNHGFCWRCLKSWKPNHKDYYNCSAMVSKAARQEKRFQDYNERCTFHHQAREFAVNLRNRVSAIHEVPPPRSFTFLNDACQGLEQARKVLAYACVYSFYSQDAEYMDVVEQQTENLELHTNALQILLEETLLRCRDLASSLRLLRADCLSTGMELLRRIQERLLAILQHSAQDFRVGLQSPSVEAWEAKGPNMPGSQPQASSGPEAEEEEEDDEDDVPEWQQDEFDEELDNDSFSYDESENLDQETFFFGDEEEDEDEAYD
UniProt P19525, whole entry: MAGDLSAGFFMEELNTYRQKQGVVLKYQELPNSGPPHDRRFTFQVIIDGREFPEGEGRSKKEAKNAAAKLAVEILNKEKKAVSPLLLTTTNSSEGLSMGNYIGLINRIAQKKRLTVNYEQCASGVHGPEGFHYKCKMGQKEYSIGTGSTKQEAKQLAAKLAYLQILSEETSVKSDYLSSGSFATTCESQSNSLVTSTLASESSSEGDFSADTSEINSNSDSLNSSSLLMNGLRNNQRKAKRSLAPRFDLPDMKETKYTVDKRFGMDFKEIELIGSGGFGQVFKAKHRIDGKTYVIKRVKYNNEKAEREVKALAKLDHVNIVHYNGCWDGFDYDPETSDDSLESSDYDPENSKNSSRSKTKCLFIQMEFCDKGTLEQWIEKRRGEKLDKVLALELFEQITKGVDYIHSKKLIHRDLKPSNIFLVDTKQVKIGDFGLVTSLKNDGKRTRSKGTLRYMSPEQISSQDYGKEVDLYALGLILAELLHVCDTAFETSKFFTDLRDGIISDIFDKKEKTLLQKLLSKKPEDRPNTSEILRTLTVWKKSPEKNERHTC

Columns and labels:
Assay in all cases: co-IP
[1] = biological target: myc-tagged CUL4A (pcDNA3-myc3-CUL4A) (UniProt Q13619)
[2] = biological target: Flag-tagged wildtype FBXW11 (pcDNA3-Flag-FBXW11-Wt) (UniProt Q9UKB1)
[3] = biological target: myc-tagged CUL7 (pcDNA3-myc3-CUL7) (UniProt Q14999)
[4] = biological target: myc-tagged CUL3 (pcDNA3-myc3-CUL3) (UniProt Q13618)
[5] = biological target: Flag-tagged wildtype BTRC (pcDNA3-Flag-BTRC-Wt) (UniProt Q9Y297)
[6] = biological target: myc-tagged CUL4B (pcDNA3-myc3-CUL4B) (UniProt Q13620)
[7] = biological target: HA-tagged CUL9 (HA2-PARC/CUL9) (UniProt Q8IWT3)
[8] = biological target: NSs protein of Rift Valley fever virus with a C-terminal V5 tag, expressed from recombinant MP-12 virus (rMP-12-NSs-V5) (Rift Valley fever virus, strain MP-12) (UniProt P21698)

NSs protein of Rift Valley fever virus with a C-terminal V5 tag, expressed from recombinant MP-12 virus (rMP-12-NSs-V5) (from UniProt P21698 1-265)
binding [1]: no binding | binding [2]: binds | binding [3]: no binding | binding [4]: no binding | binding [5]: binds | binding [6]: no binding | binding [7]: no binding

double-stranded (ds) RNA-dependent protein kinase (PKR or EIF2AK2) (from UniProt P19525 1-551)
binding [8]: binds

HA-tagged FBXW11 (pcDNA3-HA-FBXW11) (from UniProt Q9UKB1 1-542)
binding [8]: binds
